# Results from patent US8551783B2, “Efficient and universal method for neural differentiation of human pluripotent stem cells” (Industry-Academic Cooperation Foundation, Yonsei University, priority 2009, dated 2013).
# Entries after “also recorded” stand apart in the source; their conditions may differ. At least one compound was matched to its structure with a doubt left.
# How the values were obtained:
# BMP signaling pathway = assay: BMP signaling activity: Id1 and Id3 expression in EBs by qRT-PCR; format: cell-based, human; details: DM 0.1-5 μM, 4 day-treatment of EBs, dose-dependent, vs DMSO
# H9 hESCs = assay: Spontaneous differentiation of H9 hESC EBs, marker expression by qRT-PCR and immunocytochemistry; format: cell-based, human
smiles,measurement,setting,value
"c1cc(-c2cnn3cc(-c4ccc(OCCN5CCCCC5)cc4)cnc23)ccn1 [DM, dorsomorphin]","expression level of Id1 and Id3 genes, the indicators of BMP signaling activity",BMP signaling pathway,decreased; also recorded: diminished
same,undifferentiated cells (double-positive for Oct4 and SSEA4) and endoderm cells (AFP-positive),"H9 hESCs; 10 μM DM for 10 days, immunocytochemistry of EBs",detected in a portion of EBs
same,expression of neural markers Pax6 and Nestin,"H9 hESCs; 4-day DM treatment of differentiating EBs, dose-dependent, qRT-PCR",increased
same,expression of trophoblast markers (GATA2 and GCM1),"H9 hESCs; DM 5 μM with or without SB431542 5-10 μM, 10 days, qRT-PCR",decreased
same,expression of neural markers (Sox1 and nestin),"H9 hESCs; DM 1 and 5 μM, 10 days, dose-dependent, qRT-PCR",significantly enhanced
same,"markers for mesoderm (Brachyury, Cerberus), endoderm (AFP, GATA4) and undifferentiated hESCs (Oct4 and Nanog)","H9 hESCs; DM 1 and 5 μM, 10 days, qRT-PCR",reduced
same,endodermal (AFP) and undifferentiated cell markers (Oct4 and SSEA4) remaining,"H9 hESCs; DM alone, 10 days, immunocytochemistry",still detected
